For at least one compound, name, drawing or mass did not settle the structure.
Tested on: testicular germ cell proliferation
Test: Screen of SSC / differentiating spermatogonia receptor ligands in the iterative culture process
Format: cell-based, human
Conditions: ligand at the concentration listed in Table 5; effective to date at improving germ cell proliferation
Text: A process for identification and selection of receptor ligands capable of improving testicular germ cell proliferation was developed. The process uses expression data obtained by mining scRNA-seq data obtained from testicular tissue (FIG. 27). The process systematically prioritizes candidates for spermatogonia ligands through a series of bioinformatics analyses and filtering. The process comprises identifying and selecting potential ligands based on their receptor expression in State 1 SSCs (active stem cells) and State 2/3 differentiating spermatogonia (differentiated germ cells with strong proliferation ability), or any combination thereof.
More specifically, the approach was based on the single-cell RNA sequencing transcriptome profile of the adult human testis atlas (Guo, J., Grow, E. J., Mlcochova, H., Maher, G. J., Lindskog, C., Nie, X., Guo, Y., Takei, Y., Yun, J., Cai, L., et al. (2018). The adult human testis transcriptional cell atlas. Cell Research 28, 1141. 10.1038/s41422-018-0099-2; the disclosure of all of which is incorporated herein in its entirety), which provides a comprehensive characterization of cell types in the human adult testis. Pseudo-bulk RNA-seq analysis was used, which involves aggregating individual cells into groups to enhance the receptor gene expression signal on SSCs and differentiating spermatogonia. […]

In the case of CC1=C(/C=C/C(C)=C/C=C/C(C)=C/C(=O)O)C(C)(C)CCC1 [Retinoic Acid, reference compound], the Effective is reported as “Yes”.
